{"sequences": {"note": "Chains of the proteins cited; added tags and fusions are not shown. Residues count along the entry.", "UniProt P15307, 8-297 R108Q/C143Y": "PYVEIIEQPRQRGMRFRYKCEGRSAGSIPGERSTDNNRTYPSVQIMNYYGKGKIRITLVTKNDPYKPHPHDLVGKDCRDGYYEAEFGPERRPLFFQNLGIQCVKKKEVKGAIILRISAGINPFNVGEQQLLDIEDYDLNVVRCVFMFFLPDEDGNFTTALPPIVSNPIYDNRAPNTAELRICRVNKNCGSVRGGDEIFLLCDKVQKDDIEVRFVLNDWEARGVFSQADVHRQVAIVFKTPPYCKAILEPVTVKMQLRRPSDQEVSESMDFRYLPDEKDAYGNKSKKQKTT", "UniProt Q04207, 19-306": "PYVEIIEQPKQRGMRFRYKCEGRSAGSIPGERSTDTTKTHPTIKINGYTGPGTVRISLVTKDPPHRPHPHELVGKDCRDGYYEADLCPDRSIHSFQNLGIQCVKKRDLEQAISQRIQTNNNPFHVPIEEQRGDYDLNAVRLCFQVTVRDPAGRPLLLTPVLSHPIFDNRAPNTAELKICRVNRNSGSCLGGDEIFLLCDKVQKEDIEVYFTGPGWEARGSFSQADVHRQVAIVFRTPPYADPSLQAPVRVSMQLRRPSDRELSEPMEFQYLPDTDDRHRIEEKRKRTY", "UniProt P98152, 25-311": "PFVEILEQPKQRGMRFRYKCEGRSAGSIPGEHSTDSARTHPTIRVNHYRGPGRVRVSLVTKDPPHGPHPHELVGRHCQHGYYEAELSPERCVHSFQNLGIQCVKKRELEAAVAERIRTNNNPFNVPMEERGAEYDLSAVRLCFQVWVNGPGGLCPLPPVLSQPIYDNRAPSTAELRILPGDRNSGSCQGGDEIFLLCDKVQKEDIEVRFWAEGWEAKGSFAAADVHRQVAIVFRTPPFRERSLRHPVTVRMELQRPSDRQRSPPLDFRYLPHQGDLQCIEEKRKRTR"}, "source": "paper PMC12043515", "about": "“Stepwise neofunctionalization of the NF-κB family member Rel during vertebrate evolution”", "test_in_all_cases": "EMSA off-rate", "key": {"[1]": {"molecular_target": "Rel RHR R101Q C137Y R108Q,C143Y (UniProt P15307)", "conditions": "moderately faster off-rate than R101Q; EMSA: 10 mM Tris-HCl pH 7.5, 150 mM NaCl, 1 mM DTT, 1 mM EDTA, 5% glycerol, 80 ng/ul dI-dC, 200 ng/ul BSA, 4 C; off-rate with 100-fold unlabeled consensus; protein in a lysate after overexpression; label: 32P"}, "RelA RHR mouse (mouse)": {"molecular_target": "RelA RHR mouse (mouse) (UniProt Q04207)", "conditions": "faster off-rate than mouse Rel; EMSA: 10 mM Tris-HCl pH 7.5, 150 mM NaCl, 1 mM DTT, 1 mM EDTA, 5% glycerol, 80 ng/ul dI-dC, 200 ng/ul BSA, 4 C; off-rate with 100-fold unlabeled consensus; protein in a lysate after overexpression; protein details: N-terminal Flag; label: 32P"}, "[2]": {"molecular_target": "RelA RHR chicken (chicken) (UniProt P98152)", "conditions": "comparable to chicken Rel; EMSA: 10 mM Tris-HCl pH 7.5, 150 mM NaCl, 1 mM DTT, 1 mM EDTA, 5% glycerol, 80 ng/ul dI-dC, 200 ng/ul BSA, 4 C; off-rate with 100-fold unlabeled consensus; protein in a lysate after overexpression; protein details: N-terminal Flag; label: 32P"}, "Rel RHR frog (frog)": {"test_system": "Rel RHR frog (frog)", "conditions": "slower off-rate than frog RelA; EMSA: 10 mM Tris-HCl pH 7.5, 150 mM NaCl, 1 mM DTT, 1 mM EDTA, 5% glycerol, 80 ng/ul dI-dC, 200 ng/ul BSA, 4 C; off-rate with 100-fold unlabeled consensus; protein in a lysate after overexpression; protein details: N-terminal Flag; label: 32P"}, "[3]": {"molecular_target": "T1, RelA RHR zebrafish (zebrafish) (UniProt A0A8M2BI19)", "T1 sequence (looked up, limits assumed)": "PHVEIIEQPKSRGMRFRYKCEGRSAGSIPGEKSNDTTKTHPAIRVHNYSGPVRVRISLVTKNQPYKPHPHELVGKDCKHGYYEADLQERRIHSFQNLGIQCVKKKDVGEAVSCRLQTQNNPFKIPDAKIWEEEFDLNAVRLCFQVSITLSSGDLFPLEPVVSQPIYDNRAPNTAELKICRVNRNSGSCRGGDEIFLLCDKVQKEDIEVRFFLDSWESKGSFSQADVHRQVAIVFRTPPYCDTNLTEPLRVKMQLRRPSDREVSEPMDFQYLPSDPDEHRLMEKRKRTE", "conditions": "comparable to zebrafish Rel; EMSA: 10 mM Tris-HCl pH 7.5, 150 mM NaCl, 1 mM DTT, 1 mM EDTA, 5% glycerol, 80 ng/ul dI-dC, 200 ng/ul BSA, 4 C; off-rate with 100-fold unlabeled consensus; protein in a lysate after overexpression; protein details: N-terminal Flag; label: 32P"}}, "note": "Construct, isoform or probe ends are uncertain for at least one entry. At least one result comes from cells or an extract, where the contact may be indirect. For some assays here: A weaker result is weaker than the reference pair of the same experiment. For some assays here: Tags and fusion partners may be left off the protein sequences shown."}
{"sequence": "CCTAACATCAGGGAATTTCCTGATGTTAGG (double strand) [consensus NF-κB]", "values": [{"measurement": "binding result", "setting": "[1]", "value": "binds more weakly"}, {"measurement": "binding result", "setting": "RelA RHR mouse (mouse)", "value": "binds more weakly"}, {"measurement": "binding result", "setting": "[2]", "value": "binds"}, {"measurement": "binding result", "setting": "Rel RHR frog (frog)", "value": "binds"}, {"measurement": "binding result", "setting": "[3]", "value": "binds"}]}
